# Assay results reported in the supplement of paper PMC10849652.
# Protein sequences, listed by entry. Tags and fused reporters are not part of them. Lines headed by an entry give the natural chain unless they say otherwise; changes in a name come on top.
# UniProt Q86XK3: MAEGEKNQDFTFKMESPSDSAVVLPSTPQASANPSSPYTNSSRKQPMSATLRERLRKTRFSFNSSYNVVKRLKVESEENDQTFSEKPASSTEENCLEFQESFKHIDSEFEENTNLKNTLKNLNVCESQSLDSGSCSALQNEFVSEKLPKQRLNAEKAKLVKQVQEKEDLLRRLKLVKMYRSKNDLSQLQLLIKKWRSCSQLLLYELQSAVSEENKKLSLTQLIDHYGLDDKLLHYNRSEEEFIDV
# UniProt Q9ULL8: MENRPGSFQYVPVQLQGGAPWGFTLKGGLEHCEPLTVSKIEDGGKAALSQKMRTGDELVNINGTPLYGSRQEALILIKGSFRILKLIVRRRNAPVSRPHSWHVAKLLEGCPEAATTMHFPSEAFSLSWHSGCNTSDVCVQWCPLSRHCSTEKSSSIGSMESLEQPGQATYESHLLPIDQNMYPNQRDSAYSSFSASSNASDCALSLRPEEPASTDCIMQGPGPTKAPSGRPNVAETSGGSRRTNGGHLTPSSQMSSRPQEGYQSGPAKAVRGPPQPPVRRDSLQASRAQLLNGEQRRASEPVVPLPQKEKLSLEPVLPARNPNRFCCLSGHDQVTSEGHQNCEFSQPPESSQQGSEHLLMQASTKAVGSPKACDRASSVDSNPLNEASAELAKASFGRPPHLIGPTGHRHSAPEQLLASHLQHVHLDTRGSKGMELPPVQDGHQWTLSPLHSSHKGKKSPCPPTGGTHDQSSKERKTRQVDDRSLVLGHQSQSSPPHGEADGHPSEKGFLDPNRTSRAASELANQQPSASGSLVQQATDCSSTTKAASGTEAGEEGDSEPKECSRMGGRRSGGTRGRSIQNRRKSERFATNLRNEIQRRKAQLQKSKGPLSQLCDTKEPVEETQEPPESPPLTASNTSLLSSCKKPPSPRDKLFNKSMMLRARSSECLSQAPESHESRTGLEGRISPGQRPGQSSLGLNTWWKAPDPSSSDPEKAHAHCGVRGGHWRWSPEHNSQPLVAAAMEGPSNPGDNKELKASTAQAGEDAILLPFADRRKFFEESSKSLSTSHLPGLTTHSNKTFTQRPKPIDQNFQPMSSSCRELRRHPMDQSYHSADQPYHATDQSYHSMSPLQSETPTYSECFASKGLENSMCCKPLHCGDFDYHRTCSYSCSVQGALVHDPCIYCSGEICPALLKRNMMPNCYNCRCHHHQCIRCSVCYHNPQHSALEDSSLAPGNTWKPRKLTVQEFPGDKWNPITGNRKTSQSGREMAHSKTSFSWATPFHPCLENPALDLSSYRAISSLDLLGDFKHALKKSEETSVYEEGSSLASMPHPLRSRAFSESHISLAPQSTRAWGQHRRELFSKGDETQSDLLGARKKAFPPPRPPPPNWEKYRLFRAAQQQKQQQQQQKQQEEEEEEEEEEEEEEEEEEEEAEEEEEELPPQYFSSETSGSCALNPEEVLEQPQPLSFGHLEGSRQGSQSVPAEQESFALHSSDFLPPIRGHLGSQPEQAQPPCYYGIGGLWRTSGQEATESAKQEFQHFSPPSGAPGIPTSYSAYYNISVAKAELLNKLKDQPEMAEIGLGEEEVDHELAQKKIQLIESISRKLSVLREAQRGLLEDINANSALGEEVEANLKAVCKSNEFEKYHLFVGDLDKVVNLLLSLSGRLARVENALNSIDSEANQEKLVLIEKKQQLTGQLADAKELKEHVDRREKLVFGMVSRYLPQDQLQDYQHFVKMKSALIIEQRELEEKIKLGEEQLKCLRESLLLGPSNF
# UniProt O43255: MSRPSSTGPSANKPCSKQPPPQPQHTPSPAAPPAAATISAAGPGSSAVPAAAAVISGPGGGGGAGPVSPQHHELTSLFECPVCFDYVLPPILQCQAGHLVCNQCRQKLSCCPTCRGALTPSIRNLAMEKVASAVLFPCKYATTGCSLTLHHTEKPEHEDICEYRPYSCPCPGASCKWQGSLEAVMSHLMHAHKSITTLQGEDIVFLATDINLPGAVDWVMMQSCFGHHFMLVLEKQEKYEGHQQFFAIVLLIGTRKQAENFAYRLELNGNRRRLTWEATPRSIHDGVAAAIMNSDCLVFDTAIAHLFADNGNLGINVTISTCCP
# UniProt Q99963: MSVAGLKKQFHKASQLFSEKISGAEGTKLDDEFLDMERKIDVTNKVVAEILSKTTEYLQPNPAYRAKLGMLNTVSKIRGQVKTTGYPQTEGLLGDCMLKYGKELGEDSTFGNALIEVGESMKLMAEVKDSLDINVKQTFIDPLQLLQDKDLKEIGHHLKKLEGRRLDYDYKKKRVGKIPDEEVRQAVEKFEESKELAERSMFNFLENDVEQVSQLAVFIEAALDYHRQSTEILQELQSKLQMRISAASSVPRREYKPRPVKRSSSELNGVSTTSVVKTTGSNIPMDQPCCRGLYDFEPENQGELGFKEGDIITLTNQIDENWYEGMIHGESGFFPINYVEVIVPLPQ
# UniProt Q9NTG7: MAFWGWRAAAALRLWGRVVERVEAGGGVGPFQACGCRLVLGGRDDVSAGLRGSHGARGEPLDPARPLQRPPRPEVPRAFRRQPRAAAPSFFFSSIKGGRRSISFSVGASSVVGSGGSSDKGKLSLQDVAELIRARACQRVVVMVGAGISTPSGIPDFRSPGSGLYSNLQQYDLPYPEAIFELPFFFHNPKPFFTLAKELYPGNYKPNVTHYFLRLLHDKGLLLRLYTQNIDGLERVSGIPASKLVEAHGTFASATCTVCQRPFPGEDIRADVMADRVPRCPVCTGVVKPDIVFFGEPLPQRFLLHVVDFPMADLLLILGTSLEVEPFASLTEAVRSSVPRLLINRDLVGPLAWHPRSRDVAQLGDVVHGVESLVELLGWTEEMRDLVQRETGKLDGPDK
# UniProt O75635: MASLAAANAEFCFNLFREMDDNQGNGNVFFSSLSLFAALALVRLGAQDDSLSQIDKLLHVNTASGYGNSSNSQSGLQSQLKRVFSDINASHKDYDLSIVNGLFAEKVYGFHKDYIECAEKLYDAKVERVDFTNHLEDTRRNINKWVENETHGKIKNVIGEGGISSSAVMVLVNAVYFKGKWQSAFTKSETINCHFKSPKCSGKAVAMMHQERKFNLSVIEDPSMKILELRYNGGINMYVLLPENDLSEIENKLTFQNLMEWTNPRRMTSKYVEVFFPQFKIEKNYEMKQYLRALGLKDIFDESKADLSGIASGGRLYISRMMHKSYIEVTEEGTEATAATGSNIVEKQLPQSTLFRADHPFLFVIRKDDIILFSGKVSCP
# UniProt P36952: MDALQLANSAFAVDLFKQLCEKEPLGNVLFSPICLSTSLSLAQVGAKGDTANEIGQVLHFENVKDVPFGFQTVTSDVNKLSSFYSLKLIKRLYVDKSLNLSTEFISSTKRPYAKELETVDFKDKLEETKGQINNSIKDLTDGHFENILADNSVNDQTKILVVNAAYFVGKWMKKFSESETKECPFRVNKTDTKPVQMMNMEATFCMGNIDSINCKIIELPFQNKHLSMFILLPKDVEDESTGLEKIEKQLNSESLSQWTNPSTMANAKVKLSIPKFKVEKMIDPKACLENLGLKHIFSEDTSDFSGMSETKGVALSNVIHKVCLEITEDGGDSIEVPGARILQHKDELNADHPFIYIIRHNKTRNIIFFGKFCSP
# UniProt P60059: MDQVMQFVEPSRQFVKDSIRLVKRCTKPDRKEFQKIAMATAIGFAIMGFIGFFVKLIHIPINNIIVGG
# UniProt Q9NP50: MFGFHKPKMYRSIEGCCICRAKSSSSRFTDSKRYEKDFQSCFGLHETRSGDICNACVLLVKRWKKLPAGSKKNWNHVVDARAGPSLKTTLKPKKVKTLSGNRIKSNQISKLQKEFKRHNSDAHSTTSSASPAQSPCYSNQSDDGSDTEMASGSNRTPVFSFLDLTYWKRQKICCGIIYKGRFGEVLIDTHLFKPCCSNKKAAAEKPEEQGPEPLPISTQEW
# UniProt Q8WVK7: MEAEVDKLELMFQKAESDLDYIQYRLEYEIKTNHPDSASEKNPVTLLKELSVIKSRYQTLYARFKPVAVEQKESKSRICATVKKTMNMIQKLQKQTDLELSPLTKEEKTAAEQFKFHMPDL
# UniProt Q9NP31, whole entry, looked up: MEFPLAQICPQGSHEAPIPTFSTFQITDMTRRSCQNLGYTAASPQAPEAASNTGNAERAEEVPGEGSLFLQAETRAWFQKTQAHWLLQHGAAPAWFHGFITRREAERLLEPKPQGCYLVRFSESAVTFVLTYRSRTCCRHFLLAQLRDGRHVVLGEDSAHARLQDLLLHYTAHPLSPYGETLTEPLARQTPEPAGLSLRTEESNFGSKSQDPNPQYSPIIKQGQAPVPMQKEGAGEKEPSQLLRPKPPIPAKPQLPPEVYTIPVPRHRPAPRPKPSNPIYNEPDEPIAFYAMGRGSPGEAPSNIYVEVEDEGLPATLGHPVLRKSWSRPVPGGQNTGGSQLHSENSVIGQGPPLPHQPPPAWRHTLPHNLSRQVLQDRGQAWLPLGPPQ
# UniProt Q8NC51: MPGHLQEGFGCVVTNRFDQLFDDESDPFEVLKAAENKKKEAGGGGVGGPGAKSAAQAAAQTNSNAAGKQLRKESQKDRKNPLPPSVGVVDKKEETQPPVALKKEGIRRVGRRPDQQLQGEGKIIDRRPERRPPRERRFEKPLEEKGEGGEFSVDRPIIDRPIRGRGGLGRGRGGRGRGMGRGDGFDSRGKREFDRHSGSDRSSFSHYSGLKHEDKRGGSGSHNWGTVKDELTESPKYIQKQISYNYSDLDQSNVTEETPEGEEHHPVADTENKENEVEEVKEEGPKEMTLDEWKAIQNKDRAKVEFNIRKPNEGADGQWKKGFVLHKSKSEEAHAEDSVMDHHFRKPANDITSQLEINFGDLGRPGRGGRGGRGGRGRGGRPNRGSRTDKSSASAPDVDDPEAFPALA
# UniProt P55822: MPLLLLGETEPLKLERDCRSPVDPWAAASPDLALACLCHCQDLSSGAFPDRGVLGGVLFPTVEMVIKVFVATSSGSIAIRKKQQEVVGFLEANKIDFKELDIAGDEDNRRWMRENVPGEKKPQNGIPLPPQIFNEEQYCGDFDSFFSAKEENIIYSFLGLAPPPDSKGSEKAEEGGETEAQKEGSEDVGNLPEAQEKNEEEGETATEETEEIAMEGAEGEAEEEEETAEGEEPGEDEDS
# UniProt Q8N196: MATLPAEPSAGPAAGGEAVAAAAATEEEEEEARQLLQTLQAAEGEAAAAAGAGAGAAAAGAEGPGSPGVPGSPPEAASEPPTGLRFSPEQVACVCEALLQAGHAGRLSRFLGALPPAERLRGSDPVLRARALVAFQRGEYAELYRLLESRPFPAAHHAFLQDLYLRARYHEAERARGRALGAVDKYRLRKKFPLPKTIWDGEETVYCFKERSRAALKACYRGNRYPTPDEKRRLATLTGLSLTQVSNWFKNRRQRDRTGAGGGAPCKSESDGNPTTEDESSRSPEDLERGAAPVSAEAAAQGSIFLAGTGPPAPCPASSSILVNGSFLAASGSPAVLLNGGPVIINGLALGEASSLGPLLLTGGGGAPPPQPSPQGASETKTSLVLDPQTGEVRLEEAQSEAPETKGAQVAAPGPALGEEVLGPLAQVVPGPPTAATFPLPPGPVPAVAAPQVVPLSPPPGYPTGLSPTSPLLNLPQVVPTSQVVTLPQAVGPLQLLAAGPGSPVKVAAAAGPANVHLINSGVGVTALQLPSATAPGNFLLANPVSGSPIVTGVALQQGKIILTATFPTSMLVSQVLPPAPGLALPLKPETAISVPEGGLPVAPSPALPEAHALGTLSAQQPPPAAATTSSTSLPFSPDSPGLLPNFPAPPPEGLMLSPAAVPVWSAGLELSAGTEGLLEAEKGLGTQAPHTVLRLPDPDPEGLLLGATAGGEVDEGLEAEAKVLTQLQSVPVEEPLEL
# The other results are listed elsewhere or left out.
# Compound: NCC(=O)Nc1ccc(-n2nc(C(F)(F)F)cc2-c2ccc3c(ccc4ccccc43)c2)cc1
# Test: log2 fold change, soluble protein after heating vs DMSO (PISA); higher = thermal stabilisation; K562 cells, 10 uM, 30 min; active = over 0.2 and 3.5 SD of the protein, either way, in both replicates (recomputed)
# Method in brief: (§1)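 K562 cells at 2×10^6 cells/mL were given 10 μM compound for 30 min. Aliquots then went through 3 min of heating across 48°C-58°C, were pooled, and were extracted in PBS with 0.5% NP-40 at 4°C, and the supernatant after 21,000xg for 90 min was quantified by TMTpro 16plex LC-MS/MS with channel sums equalised. Thermal stability relative to control samples, from duplicates, is given as log2 fold change.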
row,Target,log2 fold change
1,SFR1 isoform 2 (UniProt Q86XK3),inactive: -0.137
2,SECISBP2L (UniProt Q93073),inactive: 0.13
3,SEMA7A (UniProt O75326),inactive: 0.112
4,SHROOM4 (UniProt Q9ULL8),inactive: 0.124
5,SHQ1 (UniProt Q6PI26),inactive: 0.161
6,"SERPINB6, A0A2R8Y7E5",inactive: -0.329
7,SIAH2 (UniProt O43255),inactive: 0.002
8,SH2D3A (UniProt Q9BRG2),inactive: 0.049
9,SH3GL3 isoform 3 (UniProt Q99963),inactive: 0.081
10,SIRT3 (UniProt Q9NTG7),inactive: -0.011
11,SF1 (UniProt H7C0N4),inactive: 0.026
12,SERPINB7 (UniProt O75635),inactive: -0.155
13,SH2B1 (UniProt Q9NRF2),inactive: -0.071
14,SERPINB5 (UniProt P36952),inactive: -0.66
15,SEPTIN2 (UniProt B5MCX3),inactive: -0.33

# Compound: Nc1ccccc1NC(=O)c1ccc(CNC(=O)OCc2cccnc2)cc1 [entinostat]
# Test: as above
# Method in brief: as §1
row,Target,log2 fold change
1,SFR1 isoform 2 (UniProt Q86XK3),inactive: -0.141
2,SEC61G (UniProt P60059),inactive: 0.239
3,SELENOP (UniProt P49908),inactive: -0.06
4,SINHCAF (UniProt Q9NP50),inactive: -0.076
5,SH3GL3 isoform 3 (UniProt Q99963),inactive: -0.033
6,SHANK2 isoform 3 (UniProt Q9UPX8),inactive: -0.027
7,SERPINB5 (UniProt P36952),inactive: 0.101

# Compound: O=C(CCCCCCC(=O)Nc1ccccc1)NO [vorinostat]
# Test: as above
# Method in brief: as §1
row,Target,log2 fold change
1,SETD2 (UniProt Q9BYW2),inactive: 0.255
2,SKA2 (UniProt Q8WVK7),inactive: 0.031
3,SEMA7A (UniProt O75326),inactive: 0.191
4,SHROOM4 (UniProt Q9ULL8),inactive: -0.128
5,SH2D2A isoform 2 (UniProt Q9NP31),inactive: -0.101
6,SERBP1 isoform 3 (UniProt Q8NC51),inactive: 0.01
7,SIRT3 (UniProt Q9NTG7),inactive: -0.063
8,SECISBP2 (UniProt Q96T21),inactive: 0.099
9,SERPIND1 (UniProt P05546),inactive: 0.39
10,SIGIRR (UniProt H0YDR5),inactive: -0.094
11,SERPINB7 (UniProt O75635),inactive: 0.203
12,SH3BGR (UniProt P55822),inactive: 0.228
13,SIX5 (UniProt Q8N196),inactive: 0.007

# Compound: O=C(CCCCCCNC(=O)c1cnc(N(c2ccccc2)c2ccccc2Cl)nc1)NO [citarinostat]
# Test: as above
# Method in brief: as §1
row,Target,log2 fold change
1,SERPINA3 (UniProt P01011),inactive: -0.035
2,SIK2 (UniProt Q9H0K1),inactive: 0.106
3,SEC61G (UniProt P60059),inactive: 0.1
4,SERPING1 isoform 3 (UniProt P05155),inactive: -0.205
5,SH2D2A isoform 2 (UniProt Q9NP31),inactive: 0.07
6,SERBP1 isoform 3 (UniProt Q8NC51),inactive: -0.027
7,SIAH2 (UniProt O43255),inactive: 0.051
8,SH3GL3 isoform 3 (UniProt Q99963),inactive: 0.212
9,SERAC1 (UniProt Q96JX3),inactive: 0.04
10,SIRT3 (UniProt Q9NTG7),inactive: -0.073
11,SF1 (UniProt H7C0N4),inactive: -0.049
12,SIGIRR (UniProt H0YDR5),inactive: 0
13,SERPINB7 (UniProt O75635),inactive: -0.107
14,SERPINB5 (UniProt P36952),inactive: -0.184
15,SEPTIN2 (UniProt B5MCX3),inactive: -0.226
16,SH3BGR (UniProt P55822),inactive: 0.046
17,SIX5 (UniProt Q8N196),inactive: -0.025

# Compound: O=C(O)c1ccc2c(c1)nc(Nc1cccc(Cl)c1)c1ccncc12 [silmitasertib]
# Test: as above
# Method in brief: as §1
row,Target,log2 fold change
1,SFR1 isoform 2 (UniProt Q86XK3),inactive: -0.031
2,SIK2 (UniProt Q9H0K1),inactive: 0.221
3,SEC61G (UniProt P60059),inactive: 0.049
4,SEMG1 (UniProt P04279),inactive: 0.116
5,SHROOM4 (UniProt Q9ULL8),inactive: 0.196
6,SELENOP (UniProt P49908),inactive: 0.101
7,SH2D2A isoform 2 (UniProt Q9NP31),inactive: 0.006
8,SERBP1 isoform 3 (UniProt Q8NC51),inactive: 0.09
9,SKAP2 (UniProt O75563),inactive: 0.155
10,"SERPINB6, A0A2R8Y7E5",inactive: 0.08
11,SIAH2 (UniProt O43255),inactive: 0.134
12,SH3GL3 isoform 3 (UniProt Q99963),inactive: -0.1
13,SERAC1 (UniProt Q96JX3),inactive: -0.026
14,SIRT3 (UniProt Q9NTG7),inactive: -0.056
15,SEPTIN7 isoform 2 (UniProt Q16181),inactive: 0.12
16,SECISBP2 (UniProt Q96T21),inactive: -0.161
17,SFXN1 (UniProt D6RDG7),inactive: 0.207
18,SERPIND1 (UniProt P05546),inactive: 0.178
19,SF1 (UniProt H7C0N4),inactive: -0.05
20,SERPINB7 (UniProt O75635),inactive: -0.058
21,SERPINB5 (UniProt P36952),inactive: 0.005
22,SH3BGR (UniProt P55822),inactive: -0.039
23,SIX5 (UniProt Q8N196),inactive: 0.033
